Results from patent US20120316107A1.
Results are given in words; binding and its absence hold for the method and conditions named. Some results given as binding are weak or reduced against the parent protein; the word gives no strength.

Protein sequences, listed by entry. Tags and fused reporters are not part of them. Residues count along the entry.
UniProt P06213, residues 28-1382: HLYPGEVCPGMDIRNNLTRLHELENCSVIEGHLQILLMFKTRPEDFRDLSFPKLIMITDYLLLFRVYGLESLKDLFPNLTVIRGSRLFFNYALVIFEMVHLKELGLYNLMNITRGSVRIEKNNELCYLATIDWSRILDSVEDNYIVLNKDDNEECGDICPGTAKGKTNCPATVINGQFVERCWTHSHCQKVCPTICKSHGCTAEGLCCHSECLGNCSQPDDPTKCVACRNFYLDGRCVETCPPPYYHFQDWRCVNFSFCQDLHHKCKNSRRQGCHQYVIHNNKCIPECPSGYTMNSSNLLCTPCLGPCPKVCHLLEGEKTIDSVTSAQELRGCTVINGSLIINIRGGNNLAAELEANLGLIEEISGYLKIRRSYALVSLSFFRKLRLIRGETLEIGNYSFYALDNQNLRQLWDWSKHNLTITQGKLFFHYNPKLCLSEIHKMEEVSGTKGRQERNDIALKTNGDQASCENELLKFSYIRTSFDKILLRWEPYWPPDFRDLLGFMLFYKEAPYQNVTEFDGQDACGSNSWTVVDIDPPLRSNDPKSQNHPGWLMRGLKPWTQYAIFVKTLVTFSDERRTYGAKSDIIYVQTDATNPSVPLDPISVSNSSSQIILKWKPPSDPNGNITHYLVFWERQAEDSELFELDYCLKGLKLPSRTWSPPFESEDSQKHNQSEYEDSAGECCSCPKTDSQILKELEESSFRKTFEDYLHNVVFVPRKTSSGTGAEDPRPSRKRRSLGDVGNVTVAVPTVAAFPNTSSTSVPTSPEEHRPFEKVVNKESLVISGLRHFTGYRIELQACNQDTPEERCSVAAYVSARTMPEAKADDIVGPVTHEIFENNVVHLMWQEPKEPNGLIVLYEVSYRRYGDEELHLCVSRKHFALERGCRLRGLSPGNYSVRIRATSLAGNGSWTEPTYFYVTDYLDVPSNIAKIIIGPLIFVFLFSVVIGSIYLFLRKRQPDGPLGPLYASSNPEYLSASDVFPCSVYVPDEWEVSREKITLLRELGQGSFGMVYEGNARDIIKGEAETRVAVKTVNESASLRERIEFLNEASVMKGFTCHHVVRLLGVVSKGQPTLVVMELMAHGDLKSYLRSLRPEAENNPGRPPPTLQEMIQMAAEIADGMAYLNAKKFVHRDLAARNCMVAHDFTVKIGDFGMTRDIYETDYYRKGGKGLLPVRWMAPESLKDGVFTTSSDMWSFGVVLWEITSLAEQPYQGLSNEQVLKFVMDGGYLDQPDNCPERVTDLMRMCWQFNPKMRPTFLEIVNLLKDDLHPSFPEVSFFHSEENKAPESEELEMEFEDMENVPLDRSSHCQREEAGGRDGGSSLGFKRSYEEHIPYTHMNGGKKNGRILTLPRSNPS

Molecular target: human insulin receptor in a human placental membrane preparation (mixture of isoforms A and B) (human) (UniProt P06213)
Assay: displacement of 125I-insulin from human placental membranes

“57 mer single-chain insulin analogue (His^A8, Asp^B10, Asp^B28, Pro^B29; GGGPRR linker) (from UniProt P30407 25-110) (ligand)” was tested, and the binding was “binds”.
